In patent US12352767B2, “Method of treating cognitive decline associated with neurological diseases based on a decrease in FLT4 expression or activity” (University of Virginia Patent Foundation, priority 2018, dated 2025):
Changes are numbered by the printed parent chain. In names and notes the source's numbering stands. Some results were stated once for a whole list of compounds, not compound by compound.

B1: VEGF-C: recombinant human VEGF-C (PeproTech) encapsulated in hyaluronic acid/methylcellulose hydrogel for transcranial delivery (protein, UniProt P49767 112-227, looked up)
Vascular endothelial growth …: AHYNTEILKSIDNEWRKTQCMPREVCIDVGKEFGVATNTFFKPPCVSVYRCGGCCNSEGLQCMNTSTSYLSKTLFEITVPLSQGPKPVTISFANHTSCRCMSKLDVYRQVHSIIRR
modifications: in hyaluronic acid/methylcellulose hydrogel
notes: recombinant human VEGF-C (PeproTech) encapsulated in hyaluronic acid/methylcellulose hydrogel for transcranial delivery
B2: VEGF-C156S: mutant VEGF-C protein that binds specifically to VEGFR3, delivered in hydrogel transcranially (protein, UniProt P49767 112-227, looked up, variant C156S)
Vascular endothelial growth …: B1 Vascular endothelial growth … with C45S
modifications: delivered in hydrogel

Experiment: In vitro release of VEGF-C from hyaluronic acid/methylcellulose hydrogel (ELISA for human VEGF-C)
Format: physicochemical
Details: 1.4% hyaluronic acid, 3% methylcellulose hydrogel

Molecule	sustained release from hydrogel in vitro [days]
B1	7 to 10
B2	7 to 10
